Test results: PMC9209732
Construct, isoform or probe ends are uncertain for at least one entry. Negatives hold for the conditions tested. At least one verdict was read from the data and is not stated in words by the source. For some assays here: Tags and fusion partners may be left off the protein sequences shown.

By UniProt entry, the sequences of proteins in these tests, tags left out. Where a name states a change or a piece, a line headed by the entry shows the natural chain unless it says otherwise.
UniProt Q02548: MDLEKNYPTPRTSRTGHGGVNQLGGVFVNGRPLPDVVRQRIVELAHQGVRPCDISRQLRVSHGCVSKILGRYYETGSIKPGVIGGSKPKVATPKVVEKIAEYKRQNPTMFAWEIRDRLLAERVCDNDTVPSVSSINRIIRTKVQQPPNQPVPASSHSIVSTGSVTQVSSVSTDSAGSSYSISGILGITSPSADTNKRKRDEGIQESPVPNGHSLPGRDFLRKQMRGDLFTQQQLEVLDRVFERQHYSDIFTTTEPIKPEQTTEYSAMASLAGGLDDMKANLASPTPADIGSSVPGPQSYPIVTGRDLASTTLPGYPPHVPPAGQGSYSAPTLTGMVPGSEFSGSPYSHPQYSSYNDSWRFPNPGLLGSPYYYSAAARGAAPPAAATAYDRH

Key:
Assay in all cases: EMSA
Conditions in all cases: EMSA: 5-10 ug protein, 50 nM probe, 5% non-denaturing PAGE, streptavidin-HRP/ECL; pH and temperature not stated; recombinant protein; protein details: His (GST also stated in Results); label: 3' biotin
[1] = biological target: Sp1 (UniProt P08047)
[2] = biological target: T1, CTCF (UniProt P49711)
T1 sequence (looked up, limits assumed): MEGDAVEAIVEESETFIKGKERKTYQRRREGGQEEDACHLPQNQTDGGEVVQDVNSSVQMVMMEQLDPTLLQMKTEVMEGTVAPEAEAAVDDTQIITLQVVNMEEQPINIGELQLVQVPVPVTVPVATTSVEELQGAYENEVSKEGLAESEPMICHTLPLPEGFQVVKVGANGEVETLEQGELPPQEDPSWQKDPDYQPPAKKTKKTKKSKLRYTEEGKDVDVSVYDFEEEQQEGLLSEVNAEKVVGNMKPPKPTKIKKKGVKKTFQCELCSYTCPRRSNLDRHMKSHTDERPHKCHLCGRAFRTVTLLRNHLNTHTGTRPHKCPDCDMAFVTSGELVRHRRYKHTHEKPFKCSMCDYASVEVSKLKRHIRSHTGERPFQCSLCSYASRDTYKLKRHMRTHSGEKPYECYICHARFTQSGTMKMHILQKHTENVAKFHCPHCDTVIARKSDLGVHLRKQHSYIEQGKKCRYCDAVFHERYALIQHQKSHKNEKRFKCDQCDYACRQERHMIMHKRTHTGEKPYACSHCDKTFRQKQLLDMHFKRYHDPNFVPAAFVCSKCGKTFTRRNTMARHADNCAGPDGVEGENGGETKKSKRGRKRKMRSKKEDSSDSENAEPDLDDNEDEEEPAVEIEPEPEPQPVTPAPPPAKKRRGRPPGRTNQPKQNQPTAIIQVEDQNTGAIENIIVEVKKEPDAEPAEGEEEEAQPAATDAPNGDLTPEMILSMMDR

[3] = biological target: Pax-5 (UniProt Q02548)
[4] = biological target: WT1 (UniProt P19544)
[5] = tested on: PPAR-gamma1

Measured: binding result

CGCTGGCACCGCCCCGCCCCCGCCTCCCGCGGCACCGCCCGCCCGCGCAGACCCCGAGCGCGGCCGCGGACGAA (double strand) [ING5 promoter probe (-48 to 25)]
no binding: all assays above
